{"sequences": {"note": "Chains of the proteins cited; added tags and fusions are not shown. Residues count along the entry.", "UniProt P04626, 674-1255": "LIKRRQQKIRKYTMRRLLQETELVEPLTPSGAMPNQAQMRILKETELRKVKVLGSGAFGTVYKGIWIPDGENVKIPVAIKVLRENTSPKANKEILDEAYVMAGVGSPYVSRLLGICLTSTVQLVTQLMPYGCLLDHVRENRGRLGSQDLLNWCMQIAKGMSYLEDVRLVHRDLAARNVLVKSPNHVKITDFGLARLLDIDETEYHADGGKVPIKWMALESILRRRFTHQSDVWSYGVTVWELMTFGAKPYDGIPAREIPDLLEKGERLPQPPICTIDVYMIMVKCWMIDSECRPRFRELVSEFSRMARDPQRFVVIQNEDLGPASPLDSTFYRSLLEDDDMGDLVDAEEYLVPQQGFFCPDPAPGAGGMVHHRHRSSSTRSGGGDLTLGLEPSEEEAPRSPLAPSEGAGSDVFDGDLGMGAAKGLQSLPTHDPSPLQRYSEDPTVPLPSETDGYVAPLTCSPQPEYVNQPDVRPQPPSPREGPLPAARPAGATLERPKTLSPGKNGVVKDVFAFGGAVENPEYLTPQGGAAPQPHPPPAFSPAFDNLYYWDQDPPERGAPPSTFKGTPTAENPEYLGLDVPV"}, "source": "patent US6927220B2", "about": "“Bicyclic-substituted 4-amino-pyridopyrimidine derivatives” (Pfizer Inc, priority 2001, dated 2005)", "note": "Some of these results come from one statement about several compounds together."}
{"target": "T1, c-erbB2 intracellular domain (erbB2 receptor kinase) (Homo sapiens, UniProt P04626)", "T1 construct": "The intracellular domain of the erbB2 tyrosine kinase (amino acids 674-1255); GST; made in house", "experiment": "c-erbB2 kinase assay", "assay_type": "biochemical", "settings": "characteristic IC50 values; range printed with mixed units (about 1 nM to about 1 μM); PGT substrate, 1 mM ATP"}
{"smiles": "Cc1cc(Nc2ncnc3cnc(N4CC5C(N)C5C4)cc23)ccc1Oc1cccnc1", "note": "(stereo not drawn) [Compound 1, [6-(6-Amino-3-aza-bicyclo[3.1.0]hex-3-yl)-pyrido[3,4-d]pyrimidin-4-yl]-[3-methyl-4-(pyridin-3-yloxy)-phenyl]-amine]", "IC50 (inhibition of the erbB2 receptor kinase)": "1 nM to about 1 μM"}
{"smiles": "CC(=O)NC1C2CN(c3cc4c(Nc5ccc(Oc6ccccc6)c(C)c5)ncnc4cn3)CC21", "note": "(stereo not drawn) [Compound 16, N-{3-[4-(3-Methyl-4-phenoxy-phenylamino)-pyrido[3,4-d]pyrimidin-6-yl]-3-aza-bicyclo[3.1.0]hex-6-yl}-acetamide]", "IC50 (inhibition of the erbB2 receptor kinase)": "1 nM to about 1 μM"}
{"smiles": "COc1cc(Nc2ncnc3cnc(N4CC5C(CO)C5C4)cc23)ccc1Oc1ccccc1", "note": "(stereo not drawn) [Compound 4, {3-[4-(3-Methoxy-4-phenoxy-phenylamino)-pyrido[3,4-d]pyrimidin-6-yl]-3-aza-bicyclo[3.1.0]hex-6-yl}-methanol]", "IC50 (inhibition of the erbB2 receptor kinase)": "1 nM to about 1 μM"}
{"smiles": "Cc1cc(Nc2ncnc3cnc(N4CC5C(N)C5C4)cc23)ccc1Oc1ccccc1", "note": "(stereo not drawn) [Compound 5, [6-(6-Amino-3-aza-bicyclo[3.1.0]hex-3-yl)-pyrido[3,4-d]pyrimidin-4-yl]-(3-methyl-4-phenoxy-phenyl)-amine]", "IC50 (inhibition of the erbB2 receptor kinase)": "1 nM to about 1 μM"}
{"smiles": "Cc1cc(Nc2ncnc3cnc(N4CC5C(CO)C5C4)cc23)ccc1Oc1ccccc1", "note": "(stereo not drawn) [Compound 2, {3-[4-(3-Methyl-4-phenoxy-phenylamino)-pyrido[3,4-d]pyrimidin-6-yl]-3-aza-bicyclo[3.1.0]hex-6-yl}-methanol]", "IC50 (inhibition of the erbB2 receptor kinase)": "1 nM to about 1 μM"}
{"smiles": "CC(=O)NC1C2CN(c3cc4c(Nc5ccc(Oc6cccnc6)c(C)c5)ncnc4cn3)CC21", "note": "(stereo not drawn) [Compound 17, N-(3-{4-[3-Methyl-4-(pyridin-3-yloxy)-phenylamino]-pyrido[3,4-d]pyrimidin-6-yl}-3-aza-bicyclo[3.1.0]hex-6-yl)-acetamide]", "IC50 (inhibition of the erbB2 receptor kinase)": "1 nM to about 1 μM"}
{"smiles": "COCC(=O)NC1C2CN(c3cc4c(Nc5ccc(Oc6ccc(C)nc6)c(C)c5)ncnc4cn3)CC21", "note": "(stereo not drawn) [Compound 13, 2-Methoxy-N-(3-{4-[3-methyl-4-(6-methyl-pyridin-3-yloxy)-phenylamino]-pyrido[3,4-d]pyrimidin-6-yl}-3-aza-bicyclo[3.1.0]hex-6-yl)-acetamide]", "IC50 (inhibition of the erbB2 receptor kinase)": "1 nM to about 1 μM"}
{"smiles": "Cc1cc(Nc2ncnc3cnc(N4CC5C(C4)C5NC(=O)c4cccs4)cc23)ccc1Oc1cccnc1", "note": "(stereo not drawn) [Compound 9, Thiophene-2-carboxylic acid (3-{4-[3-methyl-4-(pyridin-3-yloxy)-phenylamino]-pyrido[3,4-d]pyrimidin-6-yl}-3-aza-bicyclo[3.1.0]hex-6-yl)-amide]", "IC50 (inhibition of the erbB2 receptor kinase)": "1 nM to about 1 μM"}
{"smiles": "Cc1ccc(Oc2ccc(Nc3ncnc4cnc(N5CC6C(C5)C6NS(C)(=O)=O)cc34)cc2C)cn1", "note": "(stereo not drawn) [Compound 21, N-(3-{4-[3-Methyl-4-(6-methyl-pyridin-3-yloxy)-phenylamino]-pyrido[3,4-d]pyrimidin-6-yl}-3-aza-bicyclo[3.1.0]hex-6-yl)-methanesulfonamide]", "IC50 (inhibition of the erbB2 receptor kinase)": "1 nM to about 1 μM"}
{"smiles": "CC(=O)NC1C2CN(c3cc4c(Nc5ccc(Oc6cccnc6)c(Cl)c5)ncnc4cn3)CC21", "note": "(stereo not drawn) [Compound 10, N-(3-{4-[3-Chloro-4-(pyridin-3-yloxy)-phenylamino]-pyrido[3,4-d]pyrimidin-6-yl}-3-aza-bicyclo[3.1.0]hex-6-yl)-acetamide]", "IC50 (inhibition of the erbB2 receptor kinase)": "1 nM to about 1 μM"}
{"smiles": "Cc1cc(Nc2ncnc3cnc(N4CC5C(C4)C5NS(C)(=O)=O)cc23)ccc1Oc1cccnc1", "note": "(stereo not drawn) [Compound 20, N-(3-{4-[3-Methyl-4-(pyridin-3-yloxy)-phenylamino]-pyrido[3,4-d]pyrimidin-6-yl}-3-aza-bicyclo[3.1.0]hex-6-yl)-methanesulfonamide]", "IC50 (inhibition of the erbB2 receptor kinase)": "1 nM to about 1 μM"}
{"smiles": "NC1C2CN(c3cc4c(Nc5ccc(Oc6cccnc6)c(Cl)c5)ncnc4cn3)CC12", "note": "(stereo not drawn) [Compound 6, [6-(6-Amino-3-aza-bicyclo[3.1.0]hex-3-yl)-pyrido[3,4-d]pyrimidin-4-yl]-[3-chloro-4-(pyridin-3-yloxy)-phenyl]-amine]", "IC50 (inhibition of the erbB2 receptor kinase)": "1 nM to about 1 μM"}
{"smiles": "Cc1cc(Nc2ncnc3cnc(N4CC5C(C4)C5NC(=O)C4CC4)cc23)ccc1Oc1ccccc1", "note": "(stereo not drawn) [Compound 15, Cyclopropanecarboxylic acid {3-[4-(3-methyl-4-phenoxy-phenylamino)-pyrido[3,4-d]pyrimidin-6-yl]-3-aza-bicyclo[3.1.0]hex-6-yl}-amide]", "IC50 (inhibition of the erbB2 receptor kinase)": "1 nM to about 1 μM"}
{"smiles": "CSCC(=O)NC1C2CN(c3cc4c(Nc5ccc(Oc6cccnc6)c(C)c5)ncnc4cn3)CC21", "note": "(stereo not drawn) [Compound 8, N-(3-{4-[3-Methyl-4-(pyridin-3-yloxy)-phenylamino]-pyrido[3,4-d]pyrimidin-6-yl}-3-aza-bicyclo[3.1.0]hex-6-yl)-2-methylsulfanyl-acetamide]", "IC50 (inhibition of the erbB2 receptor kinase)": "1 nM to about 1 μM"}
{"smiles": "CC(=O)NC1C2CN(c3cc4c(Nc5ccc(Oc6ccc(C)nc6)c(C)c5)ncnc4cn3)CC21", "note": "(stereo not drawn) [Compound 14, N-(3-{4-[3-Methyl-4-(6-methyl-pyridin-3-yloxy)-phenylamino]-pyrido[3,4-d]pyrimidin-6-yl}-3-aza-bicyclo[3.1.0]hex-6-yl)-acetamide]", "IC50 (inhibition of the erbB2 receptor kinase)": "1 nM to about 1 μM"}
{"smiles": "Cc1ccc(Oc2ccc(Nc3ncnc4cnc(N5CC6C(N)C6C5)cc34)cc2C)cn1", "note": "(stereo not drawn) [Compound 7, [6-(6-Amino-3-aza-bicyclo[3.1.0]hex-3-yl)-pyrido[3,4-d]pyrimidin-4-yl]-[3-methyl-4-(6-methyl-pyridin-3-yloxy)-phenyl]-amine]", "IC50 (inhibition of the erbB2 receptor kinase)": "1 nM to about 1 μM"}
{"smiles": "Cc1cc(Nc2ncnc3cnc(N4CC5C(C4)C5N(C)C)cc23)ccc1Oc1ccccc1", "note": "(stereo not drawn) [Compound 3, [6-(6-Dimethylamino-3-aza-bicyclo[3.1.0]hex-3-yl)-pyrido[3,4-d]pyrimidin-4-yl]-(3-methyl-4-phenoxy-phenyl)-amine]", "IC50 (inhibition of the erbB2 receptor kinase)": "1 nM to about 1 μM"}
{"smiles": "Cc1ccc(Oc2ccc(Nc3ncnc4cnc(N5CC6C(C5)C6NC(=O)c5cccs5)cc34)cc2C)cn1", "note": "(stereo not drawn) [Compound 11, Thiophene-2-carboxylic acid (3-{4-[3-methyl-4-(6-methyl-pyridin-3-yloxy)-phenylamino]-pyrido[3,4-d]pyrimidin-6-yl}-3-aza-bicyclo[3.1.0]hex-6-yl)-amide]", "IC50 (inhibition of the erbB2 receptor kinase)": "1 nM to about 1 μM"}
{"smiles": "COCC(=O)NC1C2CN(c3cc4c(Nc5ccc(Oc6cccnc6)c(C)c5)ncnc4cn3)CC21", "note": "(stereo not drawn) [Compound 18, 2-Methoxy-N-(3-{4-[3-methyl-4-(pyridin-3-yloxy)-phenylamino]-pyrido[3,4-d]pyrimidin-6-yl}-3-aza-bicyclo[3.1.0]hex-6-yl)-acetamide]", "IC50 (inhibition of the erbB2 receptor kinase)": "1 nM to about 1 μM"}
{"smiles": "CSCC(=O)NC1C2CN(c3cc4c(Nc5ccc(Oc6ccc(C)nc6)c(C)c5)ncnc4cn3)CC21", "note": "(stereo not drawn) [Compound 12, N-(3-{4-[3-Methyl-4-(6-methyl-pyridin-3-yloxy)-phenylamino]-pyrido[3,4-d]pyrimidin-6-yl}-3-aza-bicyclo[3.1.0]hex-6-yl)-2-methylsulfanyl-acetamide]", "IC50 (inhibition of the erbB2 receptor kinase)": "1 nM to about 1 μM"}
{"smiles": "Cc1cc(Nc2ncnc3cnc(N4CC5C(C4)C5NC(=O)C4CC4)cc23)ccc1Oc1cccnc1", "note": "(stereo not drawn) [Compound 19, Cyclopropanecarboxylic acid (3-{4-[3-methyl-4-(pyridin-3-yloxy)-phenylamino]-pyrido[3,4-d]pyrimidin-6-yl}-3-aza-bicyclo[3.1.0]hex-6-yl)-amide]", "IC50 (inhibition of the erbB2 receptor kinase)": "1 nM to about 1 μM"}
